According to publication PMC7862700:
The other results are listed elsewhere or left out. The exact form of the protein is not confirmed.

molecular target: T1, ELF2 (UniProt Q15723); assay: DAPPL (digital affinity profiling via proximity ligation, sequencing); conditions: 10 mM Tris-HCl pH 7.5, 50 mM NaCl, 1 mM DTT, 4% glycerol, room temperature, 30 min; GST-TFs on glutathione beads, 16-mer random dsDNA library, 0.1% …; high values mean tight binding; double strand, one strand shown; scale: fold enrichment (6-mer frequency, TF over GST control)
T1 sequence: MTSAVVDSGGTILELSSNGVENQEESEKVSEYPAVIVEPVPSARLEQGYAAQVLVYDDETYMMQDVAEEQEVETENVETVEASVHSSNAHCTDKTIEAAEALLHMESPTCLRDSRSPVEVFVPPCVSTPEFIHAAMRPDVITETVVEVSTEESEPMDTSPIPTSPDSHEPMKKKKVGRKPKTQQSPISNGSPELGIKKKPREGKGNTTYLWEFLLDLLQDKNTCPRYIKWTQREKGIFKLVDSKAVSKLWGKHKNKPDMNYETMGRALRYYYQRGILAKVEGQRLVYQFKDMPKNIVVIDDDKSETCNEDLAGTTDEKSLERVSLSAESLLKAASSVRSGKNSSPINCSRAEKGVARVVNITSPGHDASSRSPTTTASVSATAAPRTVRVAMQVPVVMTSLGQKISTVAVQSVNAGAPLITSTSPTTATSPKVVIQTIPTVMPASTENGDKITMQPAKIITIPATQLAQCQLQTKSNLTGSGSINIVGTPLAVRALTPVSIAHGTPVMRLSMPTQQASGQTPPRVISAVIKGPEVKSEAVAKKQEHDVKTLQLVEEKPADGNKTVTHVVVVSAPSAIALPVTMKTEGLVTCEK

Question: With AACTAC as the sequence, how does the binding signal read?
Answer: The binding signal was 1.5.

Question: CACTAT was tested. Which binding signal did it give?
Answer: The binding signal was 1.18.

Question: For ACTCAT, which binding signal is on record?
Answer: Its binding signal is 1.22.

Question: For TTCGTC, which binding signal is on record?
Answer: The binding signal was 1.23.

Question: TTTCCA was tested. Which binding signal did it give?
Answer: Its binding signal is 1.28.

Question: AAACTC was tested. Which binding signal did it give?
Answer: The binding signal was 1.19.

Question: GCTCAT was tested. Which binding signal did it give?
Answer: The binding signal was 1.22.

Question: For GTAATC, which binding signal is on record?
Answer: Its binding signal is 1.09.

Question: With TCGTAT as the sequence, how does the binding signal read?
Answer: Its binding signal is 0.993.

Question: How did the binding signal turn out when CTTCGT was run?
Answer: Its binding signal is 1.25.

Question: How did the binding signal turn out when AAGCTT was run?
Answer: Its binding signal is 1.36.

Question: TTCGAG was tested. Which binding signal did it give?
Answer: Its binding signal is 1.18.

Question: Which binding signal does the source give for CCGCTC here?
Answer: The binding signal was 1.49.

Question: How did the binding signal turn out when CTTAGT was run?
Answer: Its binding signal is 1.15.

Question: With CAGGAA as the sequence, how does the binding signal read?
Answer: The binding signal was 2.39.

Question: For TTTGCC, which binding signal is on record?
Answer: The binding signal was 1.19.

Question: GATCAT was tested. Which binding signal did it give?
Answer: The binding signal was 0.913.

Question: For TTGCTG, which binding signal is on record?
Answer: The binding signal was 1.17.

Question: GTTTTA was tested. Which binding signal did it give?
Answer: Its binding signal is 1.1.

Question: Which binding signal does the source give for AGAATG here?
Answer: Its binding signal is 0.919.

Question: With TTGAGA as the sequence, how does the binding signal read?
Answer: Its binding signal is 0.842.

Question: AACACT was tested. Which binding signal did it give?
Answer: Its binding signal is 1.29.

Question: Which binding signal does the source give for ATCTGC here?
Answer: Its binding signal is 1.32.

Question: TGTATT was tested. Which binding signal did it give?
Answer: The binding signal was 1.33.

Question: With CATCTC as the sequence, how does the binding signal read?
Answer: Its binding signal is 1.18.

Question: How did the binding signal turn out when CCAGCT was run?
Answer: The binding signal was 0.916.

Question: For CCACTC, which binding signal is on record?
Answer: The binding signal was 1.2.

Question: How did the binding signal turn out when AAACAC was run?
Answer: The binding signal was 1.32.

Question: With GGATTA as the sequence, how does the binding signal read?
Answer: The binding signal was 0.842.

Question: With AGTAAT as the sequence, how does the binding signal read?
Answer: Its binding signal is 1.16.

Question: Which binding signal does the source give for TAGCGT here?
Answer: The binding signal was 0.969.

Question: With AATACC as the sequence, how does the binding signal read?
Answer: Its binding signal is 1.26.

Question: Which binding signal does the source give for TAGACT here?
Answer: The binding signal was 0.925.

Question: With AATAGT as the sequence, how does the binding signal read?
Answer: The binding signal was 1.23.

Question: With AGGATT as the sequence, how does the binding signal read?
Answer: The binding signal was 0.907.

Question: Which binding signal does the source give for ATACAC here?
Answer: Its binding signal is 1.24.

Question: With TTGAAA as the sequence, how does the binding signal read?
Answer: Its binding signal is 1.1.

Question: With GGATTT as the sequence, how does the binding signal read?
Answer: Its binding signal is 1.34.

Question: With CTCCCA as the sequence, how does the binding signal read?
Answer: The binding signal was 1.33.

Question: Which binding signal does the source give for CACGAT here?
Answer: Its binding signal is 1.21.
